# Primary screen of a compound library

From ChEMBL document CHEMBL3988442, “University of Dundee, Small-Polar-MMV Screening Library” (2021).

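Whole-cell growth test on Mycobacterium tuberculosis, read after 3 days in glucose-containing 7H9 medium; the read-out is not stated. Tested at 500 µM. The record gives no direction; compounds that gave an IC50 in retests scored well above the rest, so higher reads as more growth inhibition. Size under these conditions: about 18,000 compounds, about 1,400 of them at 50% or above in at least one test.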

Values are the deposited “Percent Effect”, in %.
How 0% and 100% were set is not recorded. Most values in the screen are low, and negative values occur.
The compounds are a random part of those screened.

structure | effect
Cc1cc(C(=O)NCCCNc2ccccn2)no1 | -3.411%
N#Cc1ncn(CC2CCCCO2)c1C#N (stereo not drawn) | 24.13%
COCCn1nc(C(=O)Nc2cc(C)on2)ccc1=O | 2.02%
Cc1ccc(C(N)CF)cc1 (stereo not drawn) | 7.678%
CCN(CC(=O)NC)S(=O)(=O)c1ccc(C(N)=O)cc1 | 1.046%
O=C(NC(c1ccccn1)C(F)(F)F)C1CCOCC1 (stereo not drawn) | 12.01%
CCC(C)(CC)NC(=O)NC1CC1 | 15.22%
Cn1ccc(COC(=O)CCc2ccccc2)cc1=O | 16.14%
CC(NC(=O)NCCCN1CCCC1=O)c1ccco1 (stereo not drawn) | 6.062%
CC1CCCCN1S(=O)(=O)c1ccc(CCN)cc1 (stereo not drawn) | 55.9%
COC(=O)C1CC2(CC(N)C2)C1 (stereo not drawn) | 1.102%
COCc1[nH][nH]c(=O)c1CCN | -0.8988%
CS(=O)(=O)CC1(CNCc2cccnc2)CC1 | -2.635%
CNCC(=O)Nc1ccc(F)cc1 | 13.22%
CSc1nc(C(=O)N2CCSCC2)c2ccccn12 | -2.305%
CNCC(=O)Nc1cc(C)ccn1 | 4.895%
O=C(NC1CCCc2ccccc21)c1ccncc1 (stereo not drawn) | 73.78%
O=C(c1ccc2c(c1)CCCC2)N1CCOCC1CO (stereo not drawn) | 17.61%
CCC1(CN)COC1 | 8.701%
CN(Cc1cc2n(n1)CCNC2)Cc1nccs1 | -3.714%
Cc1ncsc1C(=O)NC(C)C(C)C (stereo not drawn) | 58.6%
O=C1CCCN1CC1CCNC1 (stereo not drawn) | 5.01%
CC(=O)Nc1nc(COc2ccccc2C(N)=O)cs1 | 24.91%
NCCCN1CCNC(=O)C1 | 2.832%
O=C(CCN1C(=O)CCC1=O)OCC(=O)c1ccc[nH]1 | -17.18%
NC(=O)Cc1ccccc1NC(=O)NCc1cccs1 | 47.92%
CNC(C(N)=O)c1cc(OC)ccc1Br (stereo not drawn) | 33.7%
O=C(C1CCC1)N(Cc1ccccn1)C1CC1 | 31.79%
CCN1C(=O)CC(NCc2ccc3c(c2)OCO3)C1=O (stereo not drawn) | 12.73%
CNC(=O)CN(C)C(=O)Cc1c[nH]c2ccccc12 | 5.575%
CC(C)N(CC(=O)N1CCCC1)CC(C)(C)O | -8.132%
CCN(CC(=O)N(C)C1CC1)c1cccc(CO)c1 | 16.12%
CN(C)C(=O)CCCS(=O)(=O)CC(=O)N1CCCCC1 | -3.615%
COc1ccccc1NC(=O)c1c(Br)cnn1C | 3.031%
CCc1nc(CCNC(=O)CC(C)NC(C)=O)no1 (stereo not drawn) | -1.446%
CC(=O)c1cc(C(=O)N2CCCCC2)c(=O)[nH]c1C | -5.691%
CC(C)CNc1ccc2nncn2n1 | 15.09%
NC(=O)C1(CNC(=O)c2cc(Cl)sc2Cl)CCOCC1 | 19.4%
O=C(NC1CCNC1)C1CCC1 (stereo not drawn) | 0.006399%
CCOc1cccc(CSc2nc(=O)ccn2CC)n1 | 50.62%
O=C(c1ccoc1)N1CCC(NC2CCSCC2)CC1 | -11.14%
OC1CCN(CC(O)COc2ccccc2)CC1 (stereo not drawn) | 9.894%
CN(C)C[C@@H]1CN(c2cccc(C#N)n2)C[C@@H]1CO | -10.29%
NS(=O)(=O)c1ncc[nH]1 | -1.956%
CN(C)S(=O)(=O)Nc1ccccn1 | 7.457%
CCC1(CO)CCCN(CC(=O)Nc2ccn(C)n2)C1 (stereo not drawn) | 33.8%
O=C(CN1CCC(CO)CC1)NCC1CCCO1 (stereo not drawn) | -1.503%
O=S(=O)(CCc1ccccc1)N1CCC[C@H]1CO | 18.73%
COc1ccc(C(=O)CSc2nnc(N)[nH]2)cc1F | 37.2%
CCOCCOc1cccc(NC(=O)NCCN)c1 | 4.84%
CC(C)CCNC(=O)Nc1ccc(-n2cccn2)nc1 | 55.13%
CCCn1cnnc1CN(C)Cc1nnc(C)o1 | 0.4277%
COc1ncccc1CNc1cnn(C)c(=O)c1Cl | -0.7567%
COCc1nc(C2CCN(S(C)(=O)=O)C2)no1 (stereo not drawn) | 9.052%
O=C1c2ccc(Cl)cc2C(=O)N1c1cccnc1 | 2.45%
COCCCSc1ccccc1S(C)(=O)=O | 29.16%
CS(=O)(=O)Cc1ccccc1NCc1ccsc1 | 64.2%
Cc1cccc2nc(CN)n(C)c12 | 19.55%
O=C(Cc1ccc(F)cc1)NCCCn1cccn1 | 33.75%
O=C(CSc1cnn[nH]1)NCc1ccc(F)cc1 | 28.26%
NS(=O)(=O)CCCOC(=O)CCc1ccsc1 | 34.29%